No constants are given. Whether binding was seen depends on the method and setting. Binding seen in cells or lysates may run through a third protein. Some entries that bind do so weakly or less than the wild type.
Target: T1, NADPH oxidase 2 (NOX2, gp91^phox) (human (endogenous in INT-407)) (UniProt P04839)
T1 sequence: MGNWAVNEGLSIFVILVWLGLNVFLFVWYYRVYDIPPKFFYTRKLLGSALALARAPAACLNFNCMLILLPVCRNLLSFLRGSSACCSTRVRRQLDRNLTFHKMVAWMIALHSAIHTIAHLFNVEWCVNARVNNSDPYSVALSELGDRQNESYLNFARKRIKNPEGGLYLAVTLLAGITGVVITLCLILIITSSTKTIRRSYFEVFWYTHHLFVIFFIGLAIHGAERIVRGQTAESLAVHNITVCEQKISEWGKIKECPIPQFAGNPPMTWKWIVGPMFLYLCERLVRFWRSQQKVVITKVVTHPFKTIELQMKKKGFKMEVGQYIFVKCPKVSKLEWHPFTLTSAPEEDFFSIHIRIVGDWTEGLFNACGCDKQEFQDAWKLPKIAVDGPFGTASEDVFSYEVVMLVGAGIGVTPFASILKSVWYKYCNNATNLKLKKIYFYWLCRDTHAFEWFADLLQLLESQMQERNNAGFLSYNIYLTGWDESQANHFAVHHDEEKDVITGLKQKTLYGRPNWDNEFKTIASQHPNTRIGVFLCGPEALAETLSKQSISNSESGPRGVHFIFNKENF
Test: co-IP; INT-407 cells treated with rVvhA (50 pg/ml, 30 min) or vehicle (boiled rVvhA); lysis in 1% Triton X-100, 50 mM Tris-HCl pH 7.4, 150 mM NaCl, 5 mM EDTA; 400 ug lysate with 10 ug anti-NOX2 antibody, Protein A/G PLUS-agarose; western blotting for NCF1 and caveolin-1

Amino acid sequences for entries named in this document (tags omitted).
UniProt P14598: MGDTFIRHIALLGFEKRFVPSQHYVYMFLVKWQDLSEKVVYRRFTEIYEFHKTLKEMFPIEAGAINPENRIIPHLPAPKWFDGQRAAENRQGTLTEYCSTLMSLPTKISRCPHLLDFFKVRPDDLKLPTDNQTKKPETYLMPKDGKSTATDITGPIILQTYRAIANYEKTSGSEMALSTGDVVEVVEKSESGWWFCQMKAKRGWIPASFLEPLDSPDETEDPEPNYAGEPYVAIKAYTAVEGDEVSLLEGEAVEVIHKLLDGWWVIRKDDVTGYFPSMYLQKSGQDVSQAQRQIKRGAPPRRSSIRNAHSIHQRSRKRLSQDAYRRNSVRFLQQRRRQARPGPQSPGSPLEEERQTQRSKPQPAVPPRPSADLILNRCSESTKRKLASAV
UniProt Q03135: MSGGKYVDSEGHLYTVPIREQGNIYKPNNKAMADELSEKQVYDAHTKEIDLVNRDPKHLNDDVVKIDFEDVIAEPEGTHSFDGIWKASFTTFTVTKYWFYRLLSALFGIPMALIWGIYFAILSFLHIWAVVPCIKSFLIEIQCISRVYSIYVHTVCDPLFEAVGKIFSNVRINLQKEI

Row | binding | Substance
1 | binds | NCF1 (p47^phox) (from UniProt P14598 1-390)
2 | binds | caveolin-1 (from UniProt Q03135 1-178)

Reference: article PMC4669806
